The supplement of paper PMC3334620
Whole data set: some 33,000 sequences, median “E-score (-0.5 to 0.5)” near -0.016, cut for the highest 2% near 0.3. The list shows a part of the results.

Biological target: T1, Yer184c (UniProt P39961)
T1 sequence: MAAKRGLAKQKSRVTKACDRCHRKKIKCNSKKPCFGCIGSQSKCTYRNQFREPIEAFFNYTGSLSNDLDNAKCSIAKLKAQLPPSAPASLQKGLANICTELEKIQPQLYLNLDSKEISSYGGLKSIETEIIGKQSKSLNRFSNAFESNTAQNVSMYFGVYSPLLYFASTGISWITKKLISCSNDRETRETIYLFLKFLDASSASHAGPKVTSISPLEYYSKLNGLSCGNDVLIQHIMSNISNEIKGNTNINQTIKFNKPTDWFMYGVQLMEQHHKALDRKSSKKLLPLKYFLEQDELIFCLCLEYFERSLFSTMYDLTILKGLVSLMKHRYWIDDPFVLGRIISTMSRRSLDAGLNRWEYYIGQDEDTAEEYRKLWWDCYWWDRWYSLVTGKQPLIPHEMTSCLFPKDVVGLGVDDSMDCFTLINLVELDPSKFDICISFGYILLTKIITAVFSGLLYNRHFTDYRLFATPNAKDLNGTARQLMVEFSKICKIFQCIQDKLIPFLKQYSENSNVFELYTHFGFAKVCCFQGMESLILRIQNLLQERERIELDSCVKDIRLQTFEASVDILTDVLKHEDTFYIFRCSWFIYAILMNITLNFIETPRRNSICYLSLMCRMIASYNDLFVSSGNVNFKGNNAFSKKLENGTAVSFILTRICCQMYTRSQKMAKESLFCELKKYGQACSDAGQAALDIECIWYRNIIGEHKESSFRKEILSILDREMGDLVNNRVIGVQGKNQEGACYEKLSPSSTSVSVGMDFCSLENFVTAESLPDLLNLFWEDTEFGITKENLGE
Assay: PBM E-score (8-mer binding enrichment) (E-score (-0.5 to 0.5)); higher = stronger / more preferred TF binding
Conditions: protein concentration: 100 nM; construct: GST-full length
How it was run: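 Yeast transcription factors, full-length or as DNA-binding domains, were expressed with a GST tag using PURExpress in vitro transcription/translation. At about 100-200 nM they were applied to universal all-10-mer Agilent arrays, double-stranded by primer extension on fresh or once-stripped slides. Fluorescent anti-GST detected bound protein, and masliner normalised the scans. E-scores for ungapped eight-base words, pooled with reverse complements, came from the Universal PBM Analysis Suite.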

Going from CGAAACGC to AGTAGCGG, the “PBM E-score” value rises from 0.00301 to 0.126.

Going from GAATGCCA to GGCCTAAA, the “PBM E-score” value rises from -0.142 to -0.0147.

Compared with ACTGTCGA, GACGTCGA is higher in “PBM E-score” value: -0.168 for the first, 0.119 for the second.

Compared with ACAGACAG, ACCAGTGG is lower in “PBM E-score” value: 0.0219 for the first, -0.168 for the second.

Going from ATCCTTTC to GGCGGGGA, the “PBM E-score” value rises from -0.0497 to -0.00271.

Going from ACAGTGGT to CCGATCTA, the “PBM E-score” value rises from -0.186 to 0.127.

First: GCAACGCC
Second: ATATTAAG
The “PBM E-score” value of the first is lower: -0.0208 for the first, 0.231 for the second.

Going from AAAACTTT to CACTGGTC, the “PBM E-score” value falls from -0.0258 to -0.218.

Compared with AACGGCCA, AAATGACC is lower in “PBM E-score” value: 0.175 for the first, 0.042 for the second.

First: GCGTCAAA
Second: CGGTTACC
The “PBM E-score” value of the first is lower: 0.0158 for the first, 0.1 for the second.

First: ACACGCGT
Second: AGTTGCTC
The “PBM E-score” value of the first is higher: -0.00984 for the first, -0.079 for the second.

Going from GGCAGCCC to CCATGTCA, the “PBM E-score” value falls from -0.0902 to -0.175.

Going from GAAGGCAC to CCTTGGAC, the “PBM E-score” value falls from -0.00157 to -0.171.

Compared with GGGGACAC, CTTAGTGC is higher in “PBM E-score” value: -0.223 for the first, 0.081 for the second.

First: AGCAAGCG
Second: AGGATCGA
The “PBM E-score” value of the first is higher: 0.0739 for the first, -0.0278 for the second.

First: AGCCGGAG
Second: ACAGGCAT
The “PBM E-score” value of the first is higher: 0.402 for the first, -0.183 for the second.

Going from CCTGAACC to GTATACAC, the “PBM E-score” value rises from -0.086 to 0.094.

Compared with AGGAGGAT, CACCGGGC is higher in “PBM E-score” value: -0.169 for the first, 0.0876 for the second.

Going from AACCCACT to GGGGGTGA, the “PBM E-score” value falls from 0.0578 to -0.245.

Compared with AAGCCTAC, CCCGCTTC is higher in “PBM E-score” value: -0.156 for the first, -0.112 for the second.

Going from ATCAATTC to GTTAAAAA, the “PBM E-score” value rises from 0.136 to 0.188.

First: GCTTGTCC
Second: ACCAGCCT
The “PBM E-score” value of the first is higher: 0.114 for the first, -0.123 for the second.

Going from CCAGCGAG to CTTGGAAA, the “PBM E-score” value rises from -0.17 to 0.0917.

Going from GTTGCGCA to AAGACCTT, the “PBM E-score” value rises from -0.133 to -0.113.

First: GTGTCCGA
Second: ATTCCGTC
The “PBM E-score” value of the first is higher: 0.214 for the first, 0.149 for the second.

Going from TGTCCAAA to CCCAGGGA, the “PBM E-score” value falls from 0.143 to -0.194.

Compared with CGAAATCC, TGGAGTAA is lower in “PBM E-score” value: 0.213 for the first, -0.00232 for the second.

Compared with CGCTAACA, TCTTGCAA is higher in “PBM E-score” value: -0.0628 for the first, 0.212 for the second.

First: ATATTTTA
Second: ACATATGC
The “PBM E-score” value of the first is higher: 0.141 for the first, -0.356 for the second.

Compared with CGAGTATA, GCCACCGA is lower in “PBM E-score” value: 0.0351 for the first, -0.115 for the second.

First: AGACCGAC
Second: AGCACTGA
The “PBM E-score” value of the first is higher: 0.111 for the first, -0.0659 for the second.

Going from ACGTTATC to AACAGCCT, the “PBM E-score” value rises from -0.1 to -0.0161.

First: ATCCTGAC
Second: ATGGCGTC
The “PBM E-score” value of the first is higher: 0.00928 for the first, -0.0897 for the second.

First: AGCTTCCG
Second: CCATGTCG
The “PBM E-score” value of the first is higher: 0.259 for the first, -0.136 for the second.

Going from AAACGTGC to CGAATTAA, the “PBM E-score” value rises from -0.0831 to 0.217.

Compared with ACAAGCCC, CCGGACCA is higher in “PBM E-score” value: -0.199 for the first, 0.297 for the second.

Going from ACTTGCGA to AAGTATAT, the “PBM E-score” value rises from 0.0706 to 0.196.

Compared with ATCAGTAG, ATCCGACC is higher in “PBM E-score” value: -0.0144 for the first, 0.0769 for the second.

Compared with AATTACTG, ACTGCGCA is higher in “PBM E-score” value: -0.117 for the first, 0.0628 for the second.

First: CATGGACC
Second: ACAGTTGA
The “PBM E-score” value of the first is lower: -0.196 for the first, -0.148 for the second.

Compared with ACCCCATC, AGGTAAAG is higher in “PBM E-score” value: -0.212 for the first, 0.106 for the second.

Going from CCCATAAC to AGTTTATA, the “PBM E-score” value rises from -0.101 to 0.256.

Compared with AACTGGAG, AGGTCTGC is lower in “PBM E-score” value: -0.151 for the first, -0.229 for the second.

Compared with ATAGAAAC, CCGGTACC is lower in “PBM E-score” value: 0.197 for the first, 0.144 for the second.

Going from AACGTATC to GTAAGGAC, the “PBM E-score” value rises from -0.122 to -0.00218.

Going from GTAACGGA to AAGAGCTT, the “PBM E-score” value falls from 0.304 to 0.0391.

Compared with GTTTAAAC, ACAGGACG is lower in “PBM E-score” value: 0.32 for the first, -0.171 for the second.

First: TGTCCGAA
Second: AGGTTGAG
The “PBM E-score” value of the first is higher: 0.334 for the first, -0.124 for the second.

Going from ATAATGAC to CTGCGCCA, the “PBM E-score” value falls from -0.0838 to -0.154.

Going from AACTTCGC to ACAGGAGC, the “PBM E-score” value falls from 0.0292 to -0.0234.

First: AACCTCTA
Second: CTGTTTTC
The “PBM E-score” value of the first is lower: -0.123 for the first, 0.0971 for the second.

Going from CCAGCAGG to GTGCGGTA, the “PBM E-score” value rises from -0.279 to -0.0218.

Compared with CTTACTCA, AGCTCAAT is higher in “PBM E-score” value: -0.00888 for the first, 0.105 for the second.

Going from AGTAGAGC to GATTCCAA, the “PBM E-score” value rises from -0.169 to 0.0284.

Compared with GCGTGCCA, ATACTATC is higher in “PBM E-score” value: -0.206 for the first, 0.172 for the second.

First: CCCAGGAC
Second: CGTGTAAG
The “PBM E-score” value of the first is lower: -0.246 for the first, 0.0257 for the second.

First: TATGACCA
Second: AATACTAC
The “PBM E-score” value of the first is lower: 0.0653 for the first, 0.161 for the second.

Compared with AGTAGACG, ACGCTATC is lower in “PBM E-score” value: 0.0179 for the first, -0.204 for the second.

First: GAAGTGTA
Second: CCTCCGTC
The “PBM E-score” value of the first is lower: -0.217 for the first, -0.198 for the second.

First: CGGGAAAG
Second: ACGGTCAT
The “PBM E-score” value of the first is lower: 0.138 for the first, 0.173 for the second.

Compared with CTCTGACC, CTTCTGTC is higher in “PBM E-score” value: -0.154 for the first, 0.0435 for the second.

Going from ACATGTAC to CGCATTTC, the “PBM E-score” value rises from -0.102 to 0.106.

Going from GGCTAACC to GCTCGTCA, the “PBM E-score” value rises from -0.123 to -0.0503.

Going from ACAGCTAC to AAACTAAA, the “PBM E-score” value rises from -0.0776 to 0.0448.

Going from CTAATGTA to GAAGAAAC, the “PBM E-score” value falls from 0.0943 to 0.0669.

Going from ATAACGCA to GTAGGTAA, the “PBM E-score” value falls from 0.0219 to 0.0147.

First: TAACCACA
Second: TGTAAACA
The “PBM E-score” value of the first is lower: -0.182 for the first, 0.0508 for the second.

First: CATCGCTA
Second: CCGGAAAG
The “PBM E-score” value of the first is lower: 0.0244 for the first, 0.312 for the second.

Compared with GGCTCCAA, AGAGTGGC is lower in “PBM E-score” value: -0.0934 for the first, -0.217 for the second.

First: GATGAAGA
Second: ATCGCATC
The “PBM E-score” value of the first is lower: -0.0455 for the first, 0.014 for the second.

Compared with GAGCCCGC, ATAGACCC is higher in “PBM E-score” value: -0.212 for the first, 0.156 for the second.

First: CAGTCGAC
Second: AGTCTGTA
The “PBM E-score” value of the first is higher: 0.108 for the first, -0.192 for the second.

First: ACCCCCGA
Second: GCATACCA
The “PBM E-score” value of the first is lower: -0.176 for the first, -0.117 for the second.

Compared with ACCCATGA, ACGGATGC is higher in “PBM E-score” value: -0.335 for the first, 0.203 for the second.

Going from TGGATCAA to CCAAATCA, the “PBM E-score” value rises from -0.0363 to 0.0108.

Going from GGACGTAA to GGGAACTA, the “PBM E-score” value rises from -0.109 to 0.0757.

First: CACGGAGC
Second: CTTACTGC
The “PBM E-score” value of the first is higher: 0.14 for the first, -0.0955 for the second.

Compared with GCGACGTA, ACCGCGAA is higher in “PBM E-score” value: -0.16 for the first, 0.189 for the second.

First: CATACCCC
Second: GTTATCAA
The “PBM E-score” value of the first is lower: -0.164 for the first, 0.0542 for the second.

Going from CCAATAAC to CAAGCTTC, the “PBM E-score” value falls from 0.0852 to -0.0338.

Going from ACGGAACA to ACCGGCTG, the “PBM E-score” value falls from 0.303 to 0.191.

First: ATGATGGA
Second: ATCGATCG
The “PBM E-score” value of the first is lower: -0.0127 for the first, 0.0375 for the second.

Compared with AATAGCTC, CGACACGC is higher in “PBM E-score” value: -0.227 for the first, -0.0996 for the second.

Compared with GGTCATAC, GCCCCTCA is lower in “PBM E-score” value: -0.107 for the first, -0.252 for the second.

Compared with AACGTGAA, ATCAGCGA is higher in “PBM E-score” value: -0.0976 for the first, 0.0903 for the second.

First: CTTATGGA
Second: AAAGCGCG
The “PBM E-score” value of the first is lower: -0.109 for the first, -0.0924 for the second.
